Measured values: the supplement of paper PMC3334620
The full ranking holds about 33,000 sequences; the median of “E-score (-0.5 to 0.5)” is about -0.016, and the highest 2% start at about 0.3. This is one part of the list.

The sequences below were run against T1, Yer184c (UniProt P39961) (assay: PBM E-score (8-mer binding enrichment) (E-score (-0.5 to 0.5)); higher = stronger / more preferred TF binding). Conditions: protein concentration: 100 nM; construct: GST-full length.
T1 sequence: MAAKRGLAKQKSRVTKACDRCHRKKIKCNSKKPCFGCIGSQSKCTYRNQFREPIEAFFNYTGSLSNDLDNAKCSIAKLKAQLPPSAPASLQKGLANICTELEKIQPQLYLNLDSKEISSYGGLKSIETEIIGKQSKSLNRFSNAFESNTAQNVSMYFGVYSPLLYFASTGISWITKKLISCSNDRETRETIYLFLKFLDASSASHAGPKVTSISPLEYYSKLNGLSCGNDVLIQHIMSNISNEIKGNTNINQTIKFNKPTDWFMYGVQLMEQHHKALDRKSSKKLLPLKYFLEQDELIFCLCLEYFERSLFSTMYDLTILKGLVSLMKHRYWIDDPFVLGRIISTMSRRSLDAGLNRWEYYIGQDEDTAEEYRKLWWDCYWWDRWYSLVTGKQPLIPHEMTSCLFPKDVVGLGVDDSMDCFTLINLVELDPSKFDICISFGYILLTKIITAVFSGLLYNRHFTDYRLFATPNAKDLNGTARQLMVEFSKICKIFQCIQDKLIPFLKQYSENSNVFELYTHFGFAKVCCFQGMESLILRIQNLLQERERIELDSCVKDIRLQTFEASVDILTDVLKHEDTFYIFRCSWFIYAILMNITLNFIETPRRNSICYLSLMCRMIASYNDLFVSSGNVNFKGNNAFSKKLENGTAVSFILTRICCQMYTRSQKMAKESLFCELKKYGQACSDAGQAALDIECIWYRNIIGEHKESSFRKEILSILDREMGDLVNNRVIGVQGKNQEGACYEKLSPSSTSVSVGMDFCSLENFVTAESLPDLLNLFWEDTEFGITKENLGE
In short: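 Detection of bound protein used fluorescent anti-GST, with scans normalised by masliner. The proteins were GST-tagged yeast transcription factors applied at about 100-200 nM to universal all-10-mer Agilent arrays made double-stranded by primer extension. Each ungapped eight-base word, pooled with its reverse complement, was scored with an E-score from the Universal PBM Analysis Suite.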

Sequence | PBM E-score
AACCTGAC | -0.175
AGGACTCA | -0.24
AGACCTCA | -0.143
ATGGCTCA | -0.167
AATGTCCT | -0.151
AGGTACTC | -0.0632
CACGATCA | 0.0142
CGCATGCC | 0.148
ACCTGCGG | -0.0065
AGCTGAAA | 0.178
AGTCGGCG | 0.138
GAAGTTTA | 0.229
ACTCGTGC | -0.145
GAGGGATC | -0.171
CCCAACGA | -0.06
ACCTTAGT | -0.077
GACGACTC | -0.201
TAAGCAGA | -0.101
CCAACGCA | -0.0422
CGACATAA | 0.109
ACCGATGG | 0.0508
AGCTATAC | -0.0923
GAAGTTGC | -0.153
CTCGCAGC | -0.0811
GTAGGCCA | -0.017

Sequence | PBM E-score
AGATGCTC | -0.00305
CAGTGGCG | -0.14
ACGTGTTG | 0.0028
CGTCCCAG | -0.169
GCGTCCCC | -0.249
CATGGTGA | -0.0876
AGGGTGGC | -0.163
CGCTCGAG | 0.0363
ACTCGCCT | -0.147
CTACTCCA | -0.24
GACTGAGA | 0.0369
ACCGACCT | -0.0856
CTCCACGC | -0.169
CCCTAGTA | -0.0683
GATAACAA | 0.261
GAAGACTA | 0.0608
GATGGCCC | -0.186
GCTACTTA | -0.201
ACTAACGG | 0.132
ATGGCGTA | -0.111
CCAATGTC | -0.109
ACCGGACC | 0.29
CATGGCTC | -0.151
GGTCAAAA | -0.00015
CCCAGGGC | -0.298

A second format for some results above.

| Sequence | PBM E-score |
| --- | --- |
| GAGGGATC | -0.171 |
| CCCAACGA | -0.06 |
| ACCTTAGT | -0.077 |
| GACGACTC | -0.201 |
| TAAGCAGA | -0.101 |
| CCAACGCA | -0.0422 |

(list continues)

Sequence | PBM E-score
CATGTGAA | -0.0476
GGAATGTA | 0.123
GACTCTGC | -0.0367
CTACCTAA | 0.0605
AGCTGGAC | -0.0983
AAAACTAC | 0.246
AACAGGAT | -0.0981
GGGCCAAC | -0.0886
CTTTGGCA | -0.213
AAAAGGAA | 0.23
AGTGGTTG | 0.0216
ACGGCGTG | -0.0116
CGAGTTTC | -0.00564
GAATAGCC | -0.0116
GAAGGACC | -0.0391
ATGAACAA | 0.154
AACAGCGA | -0.129
GAGGCTAC | -0.152
AATAGGCA | 0.0624
GGACGCGA | -0.178
AGCTGTAT | -0.101
ACCTTACC | -0.0169
TAGCAACA | 0.062
CCGCTAGC | -0.245
AATGCCCG | -0.121

Sequence | PBM E-score
AAGCACCA | -0.224
ACCAATAG | -0.149
CCTCTGCC | -0.303
AGTGCTTG | -0.109
CGAATGTC | -0.0151
ATTTGCCG | 0.306
AACATACG | 0.129
CTCTCCTA | -0.0322
TCCATGCA | 0.122
ACTCTACA | -0.143
AGCACGCT | -0.23
CACTCCGA | 0.0993
ACTGTAGG | 0.0897
ACGAAGGA | 0.0446
AAAGGTCG | -0.226
CTTACGTC | -0.178
TCATTAAA | 0.343
TCTTAAAA | 0.0893
GTTATGGA | 0.0672
CTTAGTAA | 0.148
AGGCGACC | -0.25
GATCATCA | -0.0428
ACAGAAGT | 0.072
TCACCTGA | -0.148
ATCGATCA | -0.0651

Sequence | PBM E-score
CCGTAAAC | 0.203
CCATGGAC | -0.163
GCCAGCCC | -0.338
CCGCAGGA | -0.0578
CGAGCCTC | -0.218
ACGCCTCT | -0.32
CGCCGATA | 0.257
ACCGAAGC | 0.1
ATCGCGCG | 0.183
ACGAAGGC | -0.285
GGCCTGAC | -0.0184
ACATTAGG | -0.148
CACTGGAA | -0.118
GACAAGCA | -0.0476
AAGCTCGT | -0.0959
ATTCTTTC | 0.0708
GAGCGAGA | 0.177
ACTGGAAA | 0.0217
ATGTGGGA | -0.189
AATTTGCG | 0.0284
GCTGTACA | -0.102
GAACATTC | 0.102
GAGGCGAA | 0.0342
CTTGACAA | 0.152
CGAGGGTC | -0.129

Given with each value named: part of the list above
ATGTGGGA
  PBM E-score = -0.189
AATTTGCG
  PBM E-score = 0.0284
GCTGTACA
  PBM E-score = -0.102
GAACATTC
  PBM E-score = 0.102

More records.

Sequence | PBM E-score
ATGGCCAA | -0.125
GTGTAATA | 0.0205
GCGGGCCA | -0.21
AGATTTAG | 0.0688
TACATTAA | 0.249
CTCTTGTC | 0.13
AATTATCC | 0.116
ACATGGTA | -0.173
ATCAAAGG | -0.073
CAAGGGCA | -0.327
ACGCCATC | -0.0413
ATGAGACC | -0.15
CCACCGAA | 0.104
ATTCATGA | 0.0414
GTACAACA | 0.225
GTACACAA | -0.0116
GCAGGAAC | -0.0354
CTATGACA | -0.101
ATACATGC | -0.116
CGCGTTCA | 0.165
CATGCCGG | 0.366
CGTCTTGA | 0.239
AACAGAAA | 0.172
ACGATGGC | -0.0929
TACTGGGA | 0.094

Sequence | PBM E-score
TGTGTTAA | 0.143
AGCGAGGG | -0.263
AGTGCGAC | -0.13
CGAAAGAA | -0.0158
ACCCGAGG | -0.00171
CCATTATA | 0.115
ATGGTTTA | 0.0235
CTCGTTGC | 0.136
ACATTTAT | -0.208
GCTCTTTA | -0.0543
ACGGACTC | 0.0365
ACTGAGAA | 0.0324
GCAACCCC | -0.228
ATGACGAG | -0.0653
CGGGATTA | 0.262
ATAAATGG | -0.0498
ATCGTTGA | 0.0875
AGCATTAG | 0.0604
ATCGTCAA | 0.0976
CACCTTAG | -0.164
CTCTCTGC | -0.138
ACCCACGT | -0.121
